Results from patent US20090197900A1, “METHODS OF TREATING HEART FAILURE AND RENAL DYSFUNCTION IN INDIVIDUALS WITH AN ADENOSINE A1 RECEPTOR ANTAGONIST” (priority 2007, published 2009).
At least one compound was matched to its structure with a doubt left.

How the values were obtained:
[1] = system: subjects with acute CHF and renal impairment having BNP levels above 500 pg/mL; assay: Separate analysis of the Example 1 trial for subjects with BNP levels exceeding 500 pg/mL (BNP subgroup); format: in vivo, human
Procedure: More than 300 subjects hospitalized due to acute CHF requiring intravenous diuretic therapy to treat fluid overload, and presenting with creatinine clearance values between 20 to 80 mL/min were identified. The subjects were randomized to receive either placebo, or 10 mg, 20 mg or 30 mg intravenous KW-3902 per day. The subjects' BNP levels, NT-Pro-BNP, serum creatinine, weight, and NYHA Class were measured.
On day 1, KW-3902 (or placebo) was co-administered with intravenous furosemide (LASIX™). The specified dose of KW-3902 (or placebo) was infused over a four hour time period. Subjects received therapy for up to three days. Serum creatinine, weight, dyspnea, and worsening heart failure were assessed daily by the investigator on days 1 through 14. Worsening heart failure was investigator determined and required an increase in dose or reinstitution of LASIX, mechanical respiratory or circulatory assist measures, administration of intravenous positive […], or administration of intravenous vasodilators.
To compare the therapeutic effect of KW-3902 on individuals with different levels of BNP and or NT-Pro-BNP, the results of the trial discussed in Example 1 were separately analyzed to distinguish subjects with BNP levels exceeding 500 pg/mL. Approximately 75% of the subjects described in Example 1 fell within the subgroup having BNP levels above 500 pg/mL. (“BNP subgroup”) The difference in the percentage of subjects classified as “Success” and those classified as “Failure” is more dramatic between the treatment groups and the placebo in the BNP subgroup. (FIG. 1, FIG. 2, FIG. 3) Similarly, the change in mean serum creatinine levels between subjects receiving placebo versus KW-3902 is more dramatic in the BNP subgroup. (FIG. 4, FIG. 5, FIG. 6).
Further, greater than 65% of individuals treated with KW-3902 are characterized as “Success” following treatment with 30 mg/KW-3902.

[2] = system: subjects hospitalized due to acute CHF requiring intravenous diuretic therapy, creatinine clearance 20 to 80 mL/min; assay: Randomized placebo-controlled study of intravenous KW-3902 co-administered with IV furosemide in subjects hospitalized with acute CHF and renal impairment; format: in vivo, human

CCCn1c(=O)c2[nH]c(C34CC5CC(CC3C5)C4)nc2n(CCC)c1=O [KW-3902, 8-(3-noradamantyl)-1,3-dipropylxanthine]
difference in percentage of subjects classified as "Success" and "Failure" between treatment groups and placebo ([1]; BNP subgroup (BNP above 500 pg/mL) compared with all subjects, FIG. 1, 2, 3): more dramatic | change in mean serum creatinine levels, placebo versus KW-3902 ([1]; BNP subgroup compared with all subjects, FIG. 4, 5, 6): more dramatic | difference from placebo in modified "Success" (not Failure and markedly or moderately improved dyspnea on day 2 or 3) ([1]; BNP subgroup, 30 mg, FIG. 14): much more dramatic | percentage of subjects reporting improvements in dyspnea and changed from IV to oral diuretic therapy ([1]; group with BNP above 500 pg/ml at start of treatment compared with group with BNP above 250 pg/ml): higher percentage | percentage of subjects classified as "Failure" ([2]; 10 mg, 20 mg, 30 mg KW-3902 IV per day, up to 3 days, vs placebo, FIG. 1): reduced | change in mean serum creatinine levels ([2]; 30 mg KW-3902 IV per day, Day 14, placebo showed mean increase, FIG. 4): overall decrease in serum creatinine levels | percentage of subjects characterized as "Success" over time (speed of improvement) ([2]; 30 mg KW-3902 vs placebo, by Day 7, FIG. 10): improved more quickly | percentage of subjects reporting moderate or marked improvement in dyspnea ([2]; KW-3902 groups vs placebo, FIG. 7): greater percentage | percentage of subjects identified as having worsening heart failure ([2]; KW-3902 groups vs placebo, by Day 7, FIG. 12): higher percentage of subjects were identified as having worsening heart failure in the placebo treatment group | persistence of improvement in serum creatinine / renal function ([2]; dosed Days 1, 2 and 3 only, improvement observed on Day 14): persistent effect on renal function
